Our source for the binding values is publication PMC10605742.

Chains of the proteins cited; added tags and fusions are not shown. Lines headed by an entry give the natural chain unless they say otherwise; changes in a name come on top.
UniProt P61586: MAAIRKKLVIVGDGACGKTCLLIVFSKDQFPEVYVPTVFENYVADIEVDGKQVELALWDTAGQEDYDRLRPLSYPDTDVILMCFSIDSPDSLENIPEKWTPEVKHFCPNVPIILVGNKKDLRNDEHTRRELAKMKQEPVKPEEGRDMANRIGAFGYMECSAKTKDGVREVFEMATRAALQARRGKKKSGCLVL

The target of experiment [1] is T1, caveolin-3 (rat (endogenous in NRCM)) (UniProt P51638).
T1 sequence: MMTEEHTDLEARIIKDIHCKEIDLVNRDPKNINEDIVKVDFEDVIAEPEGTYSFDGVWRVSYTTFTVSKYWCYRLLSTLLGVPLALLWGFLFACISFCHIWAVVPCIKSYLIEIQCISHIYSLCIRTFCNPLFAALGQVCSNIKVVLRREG
Description: co-IP; lysates of NRCM transduced with Ad-RGS3L-N460A (or Ad-EGFP), with or without 1 mM carbachol for 5 min, in some panels pretreated with 10 µM L-NIO or 10 µM L-NAME; buffer 50 mM Tris-HCl pH 7.4, 2 mM EDTA, 150 mM NaCl, 0.1% SDS, 1% Nonidet P-40, 10 mM NaF; 2 µg antibody (anti-p190A, anti-eNOS, anti-Cav3 or anti-RGS3), protein-A-sepharose, 4 °C; immunoblot. (In western blotting, separated proteins are transferred to a membrane and probed.)

Experiment [2] concerns the target constitutively active RhoA (RhoAQ63L)-GST (UniProt P61586). Description: pull-down; RhoAQ63L-GST- or Rac1Q61L-GST-coated sepharose beads; lysates of NRCM transduced with Ad-RGS3L-N460A or Ad-EGFP for 48 h, with or without 1 mM carbachol for 5 min; bound p190A or p190B detected by immunoblot with isoform-specific antibodies; only the target purified.
The target of experiment [3] is T2, endothelial nitric oxide synthase (rat (endogenous in NRCM)) (UniProt Q62600).
T2 sequence: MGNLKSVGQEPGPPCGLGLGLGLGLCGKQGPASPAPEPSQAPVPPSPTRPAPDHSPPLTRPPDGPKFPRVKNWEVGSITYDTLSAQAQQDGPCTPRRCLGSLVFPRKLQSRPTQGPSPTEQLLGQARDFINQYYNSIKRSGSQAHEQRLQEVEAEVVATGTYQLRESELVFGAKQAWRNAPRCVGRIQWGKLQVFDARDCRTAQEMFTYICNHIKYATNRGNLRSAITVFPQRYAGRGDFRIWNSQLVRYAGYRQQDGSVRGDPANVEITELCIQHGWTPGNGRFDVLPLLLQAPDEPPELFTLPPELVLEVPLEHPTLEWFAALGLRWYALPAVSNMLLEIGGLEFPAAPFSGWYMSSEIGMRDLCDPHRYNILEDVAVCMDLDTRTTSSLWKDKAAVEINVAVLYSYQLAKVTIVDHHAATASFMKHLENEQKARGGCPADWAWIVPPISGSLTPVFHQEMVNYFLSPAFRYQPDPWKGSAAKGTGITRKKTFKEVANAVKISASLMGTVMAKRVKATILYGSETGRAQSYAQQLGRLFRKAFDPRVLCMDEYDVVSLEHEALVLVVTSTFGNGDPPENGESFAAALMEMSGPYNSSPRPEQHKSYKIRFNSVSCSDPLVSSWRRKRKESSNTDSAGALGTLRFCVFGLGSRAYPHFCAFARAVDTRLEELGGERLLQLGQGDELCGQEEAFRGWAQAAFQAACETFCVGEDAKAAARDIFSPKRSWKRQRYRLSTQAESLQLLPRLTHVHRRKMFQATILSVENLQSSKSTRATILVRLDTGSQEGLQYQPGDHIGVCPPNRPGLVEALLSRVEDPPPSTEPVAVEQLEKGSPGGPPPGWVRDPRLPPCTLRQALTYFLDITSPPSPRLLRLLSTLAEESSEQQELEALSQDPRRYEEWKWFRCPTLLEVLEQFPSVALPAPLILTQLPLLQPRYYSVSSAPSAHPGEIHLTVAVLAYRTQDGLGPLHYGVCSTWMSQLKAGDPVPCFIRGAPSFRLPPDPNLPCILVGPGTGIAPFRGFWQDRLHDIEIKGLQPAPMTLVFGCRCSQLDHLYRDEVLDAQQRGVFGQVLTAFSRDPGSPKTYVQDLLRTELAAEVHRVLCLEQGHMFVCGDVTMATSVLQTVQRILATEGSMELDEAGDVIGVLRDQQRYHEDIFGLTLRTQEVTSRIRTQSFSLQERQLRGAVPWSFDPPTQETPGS
The experiment in a line: co-IP; lysates of NRCM transduced with Ad-RGS3L-N460A (or Ad-EGFP), with or without 1 mM carbachol for 5 min, in some panels pretreated with 10 µM L-NIO or 10 µM L-NAME; buffer 50 mM Tris-HCl pH 7.4, 2 mM EDTA, 150 mM NaCl, 0.1% SDS, 1% Nonidet P-40, 10 mM NaF; 2 µg antibody (anti-p190A, anti-eNOS, anti-Cav3 or anti-RGS3), protein-A-sepharose, 4 °C; immunoblot.

Results are given in words; binding and its absence hold for the method and conditions named. In cells and extracts the contact can be indirect. Some entries that bind do so weakly or less than the wild type.

B1: endothelial nitric oxide synthase (enzyme, UniProt Q62600 1-1202)
chain: T2 sequence
Regarding B1, the binding entry in experiment [1] is on record as “binds”.

B2: p190RhoGAP-A (protein, UniProt P81128 1-1499)
chain: MMMARKQDVRIPTYNISVVGLSGTEKEKGQCGIGKSCLCNRFVRPSADEFHLDHTSVLSTSDFGGRVVNNDHFLYWGEVSRSLEDCVECKMHIVEQTEFIDDQTFQPHRSTALQPYIKRAAATKLASAEKLMYFCTDQLGLEQDFEQKQMPDGKLLVDGFLLGIDVSRGMNRNFDDQLKFVSNLYNQLAKTKKPIVIVLTKCDEGVERYIRDAHTFALSKKNLQVVETSARSNVNVDLAFSTLVQLIDKSRGKTKIIPYFEALKQQSQQIATAKDKYEWLVSRIVKSHNENWLSVSRKMQASPEYQDYVYLEGTQKAKKLFLQHIHRLKHEHIERRRKLYLAALPLAFEALIPNLDEVDHLSCIKAKKLLETKPEFLKWFVVLEETPWDETSHIDNMENERIPFDLMDTVPAEQLYETHLEKLRNERKRAEMRRAFKENLETSPFITPGKPWEEARSFIMNEDFYQWLEESVYMDIYGKHQKQIIDRAKEEFQELLLEYSELFYELELDAKPSKEKMGVIQDVLGEEQRFKALQKLQAERDALILKHIHFVYHPTKETCPSCPACVDAKIEHLISSRFIRPSDRNQKNSLSDPNIDRINLVILGKDGLARELANEIRALCTNDDKYVIDGKMYELSLRPIEGNVRLPVNSFQTPTFQPHGCLCLYNSKESLSYVVESIEKSRESTLGRRDNHLVHLPLTLILVNKRGDTSGETLHSLIQQGQQIASKLQCVFLDPASAGIGYGRNINEKQISQVLKGLLDSKRNLNLVSSTASIKDLADVDLRIVMCLMCGDPFSADDILSPVLQSQTCKSSHCGSSNSVLLELPIGVHKKRIELSVLSYHSSFSIRKSRLVHGYIVFYSAKRKASLAMLRAFLCEVQDIIPIQLVALTDGAIDVLDNDLSREQLTEGEEIAQEIDGRFTSIPCSQPQHKLELFHPFFKDVVEKKNIIEATHMYDNVAEACSTTEEVFNSPRAGSPLCNSNLQDSEEDVEPPSYHLFREDATLPSLSKDHSKFSMELEGNDGLSFIMSNFESKLNNKVPPPVKPKPPVHFEITKDLSYLDQGHREGQRKSMSSSPWMPQDGFDPSDYAEPMDAVVKPRNEEENIYSVPHDSTQGKIITIRNINKAQSNGSGNGSDSEMDTSSLERGRKVSAVSKPVLYRTRCTRLGRFASYRTSFSVGSDDELGPIRKKEEDQASQGYKGDNAVIPYETDEDPRRRNILRSLRRNTKKPKPKPRPSITKATWESNYFGVPLTTVVTPEKPIPIFIERCIEYIEATGLSTEGIYRVSGNKSEMESLQRQFDQDHNLDLAEKDFTVNTVAGAMKSFFSELPDPLVPYSMQIDLVEAHKINDREQKLHALKEVLKKFPKENHEVFKYVISHLNRVSHNNKVNLMTSENLSICFWPTLMRPDFSSMDALTATRSYQTIIELFIQQCPFFFYNRPISEPPGAAPGSPSAMAPTVPFLTSTPATSQPSPPQSPPPTPQSPMQPLLSSQLQAEHTL
As to B2, the binding result in experiment [2], in experiment [1] and in experiment [3] was “binds” in each case.
